# Assay results: the supplement of paper PMC4749390
# Where a name gives a salt, the structure may show the parent alone. The list shows a part of the results. Single values are uncertain here, since repeats match poorly.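 JEG3 cells stably express tetracycline-inducible wild-type human LRH-1, a highly sumoylated nuclear receptor. SUMO-sensitive transcripts APOC3 and MUC1, increased by SUMO-deficient LRH-1 or UBC9 knockdown, were quantified by RT-qPCR relative to TBP and DMSO controls. Primary hits had robust Z-scores above +2 or below -2, before toxicity and TBP filtering.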
# Tested on: JEG3 expressing hLRH-1
# Assay: APOC3 transcript change (ddCt vs TBP and DMSO), Z-score over library; higher = higher APOC3 expression
# Conditions: 10 µM; time (hr): 24
row,Compound,APOC3 transcript change (Z-score)
1,C[C@@H]1CC2C3CCC4=CC(=O)C=C[C@]4(C)[C@@]3(F)[C@@H](O)C[C@]2(C)[C@@]1(O)C(=O)CO (stereo partly drawn) [dexamethasone],0.802
2,CC1C(OC(=O)C(O)c2ccccc2)CCC(C)(C)N1C (stereo not drawn) [eucatropine hydrochloride],-0.554
3,CN(C(=O)CN(CCO)CC(=O)N(C)C(C)(C)Cc1ccccc1)C(C)(C)Cc1ccccc1 [oxethazaine],0.949
4,O=C(N[C@H](CO)[C@H](O)c1ccc([N+](=O)[O-])cc1)C(Cl)Cl [chloramphenicol],0.573
5,CCC[C@@H]1C[C@@H](C(=O)N[C@@H]([C@H]2O[C@H](SC)[C@H](O)[C@@H](O)[C@H]2O)[C@H](C)Cl)N(C)C1 [clindamycin hydrochloride],-0.0399
6,Cc1cccc(C)c1OCC(C)N (stereo not drawn) [mexiletine hydrochloride],0.238
7,CCN(CC)CCc1nc(-c2ccccc2)no1 [oxolamine citrate],-0.149
8,CC(C)(CO)C(O)C(=O)NCCCO (stereo not drawn) [panthenol (dl)],-0.69
9,CCN(CC)CCNC(=O)c1cc(Cl)c(N)cc1OC [Metoclopramide hydrochloride],-0.0395
10,Cc1cnc(C(=O)O)c[n+]1[O-] [acipimox],-0.384
11,C[N+](C)(C)C[C@H](O)CC(=O)O [levocarnitine],0.0974
12,C[C@@H]1CC2C3C[C@H](F)C4=CC(=O)C=C[C@]4(C)[C@@]3(F)[C@@H](O)C[C@]2(C)[C@@]1(O)C(=O)CO (stereo partly drawn) [flumethasone],0.408
13,CC(=O)O[C@]1(C(C)=O)CCC2C3C=C(C)C4=CC(=O)CCC4(C)C3CCC21C (stereo partly drawn) [megestrol acetate],0.579
14,CC(=O)[C@@]1(O)CC[C@H]2[C@@H]3C[C@H](C)C4=CC(=O)C=C[C@]4(C)[C@@]3(F)[C@@H](O)C[C@@]21C [fluorometholone],0.00543
15,CO/C(O)=C1\C(C)=NC(C)=C(C(=O)OCCN(C)Cc2ccccc2)C1c1cccc([N+](=O)[O-])c1 (stereo not drawn) [Nicardipine hydrochloride],1.02
16,O=C(NCC(O)CO)c1c(I)c(C(=O)NCC(O)CO)c(I)c(N(CCO)C(=O)CO)c1I (stereo not drawn) [ioversol],-0.0537
17,CC(C)NCC(O)COc1ccc(CCOCC2CC2)cc1 (stereo not drawn) [betaxalol hydrochloride],-0.482
18,C[C@@H]1CC[C@H]2[C@@H](C)C(O)O[C@@H]3O[C@@]4(C)CC[C@@H]1[C@]32OO4 (stereo partly drawn) [artenimol],0.472
19,CC1(C)O[C@@H]2CC3C4C[C@H](F)C5=CC(=O)CC[C@]5(C)C4[C@@H](O)C[C@]3(C)[C@]2(C(=O)CO)O1 (stereo partly drawn) [flurandrenolide],0.101
20,COC1=C(OC)C(=O)C(CCCCCCCCCCO)=C(C)C1=O [idebenone],-0.866
21,C[C@H](N[C@@H](CCc1ccccc1)C(=O)O)C(=O)N1CCC[C@H]1C(=O)O [enalaprilat],-0.3
22,C[C@](N)(Cc1ccc(O)c(O)c1)C(=O)O [L-alpha-Methyl DOPA],0.0704
23,CO/N=C(/C(=O)N[C@@H]1C(=O)N2C(C(=O)O)=C(CSc3nc(=O)c(O)nn3C)CS[C@H]12)c1csc(N)n1 [ceftriaxone sodium trihydrate],-0.0894

row,Compound,APOC3 transcript change (Z-score)
1,CC[C@H](C)C(=O)O[C@H]1C[C@@H](C)C=C2C=C[C@H](C)[C@H](CC[C@@H]3C[C@@H](O)CC(=O)O3)[C@H]21 [lovastatin],1.39
2,CCCCN1CCCCC1C(=O)Nc1c(C)cccc1C (stereo not drawn) [bupivacaine hydrochloride],-0.423
3,OCCN1CCN(CCCN2c3ccccc3Sc3ccc(C(F)(F)F)cc32)CC1 [Fluphenazine dihydrochloride],0.651
4,Nc1nnc(-c2cccc(Cl)c2Cl)c(N)n1 [lamotrigine],0.255
5,O=C1CN(/N=C/c2ccc(-c3ccc([N+](=O)[O-])cc3)o2)C(=O)N1 [dantrolene sodium],-0.589
6,CCN(CC)CCNC(=O)c1cc(S(C)(=O)=O)ccc1OC [tiapride hydrochloride],0.907
7,CCOc1nc2cccc(C(=O)OC(C)OC(=O)OC3CCCCC3)c2n1Cc1ccc(-c2ccccc2-c2nn[nH]n2)cc1 (stereo not drawn) [candesartan cilextil],-0.216
8,Cc1c2oc3c(C)ccc(C(=O)OC(C)C4NC(=O)C(C(C)C)N(C)C(=O)CN(C)C(=O)C5CCCN5C(=O)C(C(C)C)NC4=O)c3nc-2c(C(=O)OC(C)C2NC(=O)C(C(C)C)N(C)C(=O)CN(C)C(=O)C3CCCN3C(=O)C(C(C)C)NC2=O)c(N)c1=O (stereo not drawn) [dactinomycin],1.74
9,CC(=O)Oc1ccccc1C(=O)O [aspirin],0.0873
10,COCCCC/C(=N\OCCN)c1ccc(C(F)(F)F)cc1 [fluvoxamine maleate],-0.999
11,CC(=O)O[C@]1(C(C)=O)CCC2C3C[C@H](C)C4=CC(=O)CC[C@]4(C)C3CC[C@@]21C (stereo partly drawn) [medroxyprogesterone acetate],0.148
12,Cc1ncc(CO)c(CO)c1O [pyridoxine],-0.0627
13,CC(C)(C#N)c1cc(Cn2cncn2)cc(C(C)(C)C#N)c1 [anastrozole],0.405
14,O=NN(CCCl)C(=O)NCCCl [carmustine],-0.0873
15,N[C@@H](CCC(=O)N[C@@H](CS)C(=O)NCC(=O)O)C(=O)O [glutathione],-0.373
16,CN1CC(=O)N2[C@H](c3ccc4c(c3)OCO4)c3[nH]c4ccccc4c3C[C@@H]2C1=O [tadalafil],-0.0311
17,N[C@@H]1CONC1=O [D-Cycloserine],-0.465
18,CCCCC(CC)CCC(CC(C)C)OS(=O)(=O)O (stereo not drawn) [sodium tetradecyl sulfate],-0.708
19,CN1C(=O)CC[C@H]1c1cccnc1 [cotinine],0.553
20,O=C(O)c1cn(-c2ccc(F)cc2)c2cc(N3CCNCC3)c(F)cc2c1=O [sarafloxacin hydrochloride],0.672
21,CC(=O)O[C@]1(C(C)=O)CC[C@H]2[C@@H]3C=C(Cl)C4=CC(=O)[C@@H]5C[C@@H]5[C@]4(C)[C@H]3CC[C@@]21C [cyproterone acetate],-0.0728
22,O=C(O)c1cc(O)c2c(c1)[C@@H]([C@H]1c3cc(C(=O)O)cc(O)c3C(=O)c3c(O[C@H]4O[C@H](CO)[C@@H](O)[C@H](O)[C@H]4O)cccc31)c1cccc(O[C@H]3O[C@H](CO)[C@@H](O)[C@H](O)[C@H]3O)c1C2=O (stereo in doubt) [sennoside a],-0.786
23,CC(=O)NC[C@H]1CN(c2ccc(N3CCOCC3)c(F)c2)C(=O)O1 [linezolid],0.274

row,Compound,APOC3 transcript change (Z-score)
1,CC(C)/N=C(N)/N=C(\N)Nc1ccc(Cl)cc1 [chlorguanide hydrochloride],1.11
2,Nc1nc(O)c2ncn(COC(CO)CO)c2n1 [ganciclovir],-0.536
3,O=S(=O)(c1cccc2cnccc12)N1CCCNCC1 [fasudil hydrochloride],-2.39
4,CCCCCCCCCCCCCCCC(=O)OC[C@@H](NC(=O)C(Cl)Cl)[C@H](O)c1ccc([N+](=O)[O-])cc1 [chloramphenicol palmitate],-0.741
5,c1ccc(-c2ccc(C(c3ccccc3)n3ccnc3)cc2)cc1 (stereo not drawn) [bifonazole],0.577
6,Cc1cc(CC(=O)O)n(C)c1C(=O)c1ccc(Cl)cc1 [zomepirac sodium],0.347
7,CN1Cc2c(N)cccc2C(c2ccccc2)C1 (stereo not drawn) [Nomifensine maleate],0.743
8,Oc1nc2ccccc2n1CCCN1CCC(n2c(O)nc3cc(Cl)ccc32)CC1 [Domperidone],-0.0368
9,N[C@@H](Cc1cc(I)c(Oc2cc(I)c(O)c(I)c2)c(I)c1)C(=O)O [thyroxine],0.123
10,Cc1cnc(NC(=O)C2=C(O)c3ccccc3S(=O)(=O)N2C)s1 [meloxicam],0.374
11,Nc1ccc(C(=O)O)cc1 [potassium p-aminobenzoate],-0.0686
12,CC(=O)O[C@@]12CO[C@@H]1C[C@H](O)[C@@]1(C)C(=O)[C@H](O)C3=C(C)[C@@H](OC(=O)[C@H](O)[C@@H](NC(=O)OC(C)(C)C)c4ccccc4)C[C@@](O)([C@@H](OC(=O)c4ccccc4)[C@H]21)C3(C)C [docetaxel],1.92
13,CCN(CC)C(=O)c1cccc(C)c1 [deet],-0.558
14,CCN(CC)C(=O)c1cccnc1 [nikethamide],-0.284
15,NC(=O)N1c2ccccc2C=Cc2ccccc21 [Carbamazepine],0.0224
16,CCCCCCCCCC(=O)N[C@@H](Cc1c[nH]c2ccccc12)C(=O)N[C@@H](CC(N)=O)C(=O)N[C@@H](CC(=O)O)C(=O)N[C@@H]1C(=O)NCC(=O)N[C@@H](CCCN)C(=O)N[C@@H](CC(=O)O)C(=O)N[C@H](C)C(=O)N[C@@H](CC(=O)O)C(=O)NCC(=O)N[C@H](CO)C(=O)NC([C@@H](C)CC(=O)O)C(=O)N[C@@H](CC(=O)c2ccccc2N)C(=O)O[C@H]1C (stereo partly drawn) [daptomycin (5 millimolar/dmso)],-1.11
17,CC(=O)N(CC(O)CN(C(C)=O)c1c(I)c(C(=O)NCC(O)CO)c(I)c(C(=O)NCC(O)CO)c1I)c1c(I)c(C(=O)NCC(O)CO)c(I)c(C(=O)NCC(O)CO)c1I (stereo not drawn) [iodixanol],-0.329
18,CC(C)(C)c1ccc(C(O)CCCN2CCC(C(O)(c3ccccc3)c3ccccc3)CC2)cc1 (stereo not drawn) [terfenadine],1.23
19,CC(O)C(=O)O (stereo not drawn) [ammonium lactate],-0.413
20,CC1CCc2cc(F)cc3c(=O)c(C(=O)O)cn1c23 (stereo not drawn) [flumequine],-0.567
21,COc1nc(N)nc2c1ncn2C1O[C@H](CO)[C@@H](O)[C@@H]1O (stereo partly drawn) [nelarabin],-0.235
22,COc1c2occc2cc2ccc(=O)oc12 [methoxsalen],-0.318

# 2 entries from above, bar-delimited:
row | Compound | APOC3 transcript change (Z-score)
11 | Nc1ccc(C(=O)O)cc1 [potassium p-aminobenzoate] | -0.0686
12 | CC(=O)O[C@@]12CO[C@@H]1C[C@H](O)[C@@]1(C)C(=O)[C@H](O)C3=C(C)[C@@H](OC(=O)[C@H](O)[C@@H](NC(=O)OC(C)(C)C)c4ccccc4)C[C@@](O)([C@@H](OC(=O)c4ccccc4)[C@H]21)C3(C)C [docetaxel] | 1.92

# Structural class, the compounds so far containing a furan ring, fused or not.
row,Compound,APOC3 transcript change (Z-score)
5,O=C1CN(/N=C/c2ccc(-c3ccc([N+](=O)[O-])cc3)o2)C(=O)N1 [dantrolene sodium],-0.589
22,COc1c2occc2cc2ccc(=O)oc12 [methoxsalen],-0.318
